Values from PubChem BioAssay AID1671195 (Yale University, 2021).
Assay: 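Knockdowns that increase or decrease uptake of fluorescent LDL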 (primary screen). Cell system: human Huh7 hepatoma cells. Reagent: siRNA pool against human genes, 18 nM. Duration: about 2 to 2.5 days of knockdown, then 8 h LDL uptake. Conditions: DiI-labelled LDL at 30 µg/ml for 8 h, in lipoprotein-deficient serum medium. Measurement: 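Fluorescent LDL signal imaged in cells, scaled to the plate median, robust z-score for each replicate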. Reading the numbers: robust z-score: higher = more LDL uptake after knockdown. Active means: 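Active when two or more replicates show a robust z-score above 2 or below -2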.
In all, the deposit lists about 22,000 reagents; below is a random part of them. About 1,510 of all reagents (6.9%) were called active. 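Active includes knockdowns raising or lowering LDL uptake; positive z-scores mean more uptake, negative mean less.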 Entries without a mark were called inactive. Reagents against one gene are numbered here. Reagent sequences are not shown.

| Target gene | reagent | robust z-score, replicate 1 | robust z-score, replicate 2 | robust z-score, replicate 3 |
| --- | --- | --- | --- | --- |
| C5AR2 | 1 | 0.778 (active) | 4.08 | 3.29 |
| SLC2A6 | 1 | -0.347 | -0.625 | -0.262 |
| CTH | 1 | -0.15 | 0.919 | 0.266 |
| MSH2 | 1 | 1.04 | 0.785 | 1.08 |
| SMAGP | 1 | 0.837 | 0.163 | -0.832 |
| TMEM106B | 1 | 1.25 | 2.3 | 1.43 |
| LEPROTL1 | 1 | -1.76 | -0.707 | -1.33 |
| SLFN14 | 1 | -0.686 | -0.504 | -0.482 |
| SLC17A8 | 1 | 1.34 | 1.99 | 1.49 |
| AKAP6 | 1 | -0.587 | 0.148 | -0.287 |
| H4C1 | 1 | -1.36 | -0.743 | -1.18 |
| EPHA10 | 1 | -0.414 | 0.155 | -0.597 |
| SMC1B | 1 | -1.74 | -1.45 | -1.06 |
| DNASE2B | 1 | -1.65 | -1.63 | -1.92 |
| KTN1-AS1 | 1 | -0.559 | -0.469 | -0.866 |
| LOC391859 (retired record) | 1 | 0.979 | 0.699 | 0.293 |
| FAM186B | 1 | -0.961 | -0.355 | -0.706 |
| SRI | 1 | -0.38 | -0.999 | -0.615 |
| LOC441039 (retired record) | 1 | -1.29 | -1.67 | -1.82 |
| UNC80 | 1 | -1.2 | -1.46 | -1.49 |
| LUC7L | 1 | -2.04 | 0.19 | -0.503 |
| OR2C3 | 1 | -0.12 | -0.69 | -0.65 |
| TYW2 | 1 | -0.696 | -1.89 | 0.0108 |
| LOC442665 (retired record) | 1 | -2.17 (active) | -2.18 | -1.79 |
| NUP205 | 1 | 0.663 | 0.735 | 0.851 |
| SLC2A9 | 1 | -1.19 | -1.24 | -1.07 |
| LOC391705 (retired record) | 1 | 1.6 | 0.578 | 1.1 |
| NLRP13 | 1 | -0.041 | -0.609 | -0.645 |
| TSC1 | 1 | -0.149 | -1.46 | 1.2 |
| RUNX2 | 1 | 0.34 | 0.394 | 0.0984 |
| LOC729770 | 1 | 0.432 | 0.561 | 0.641 |
| LOC391570 (retired record) | 1 | 1.4 | 0.935 | 1.09 |
| SMPD5 | 1 | -1.21 | -0.362 | -0.323 |
| DNAJB3P | 1 | -0.549 | -0.406 | -0.533 |
| TRRAP | 1 | -1.96 (active) | -1.26 | -2.22 |
| LOC399921 (retired record) | 1 | 0.935 | 0.583 | 0.353 |
| UBAP2L | 1 | -1.08 | -0.0142 | -1.7 |
| PTPRH | 1 | -0.614 | -0.789 | -0.475 |
| STXBP3 | 1 | -0.962 | 0.906 | 2.14 |
| DEFB116 | 1 | -0.529 | -0.696 | -0.346 |
| BMF | 1 | -0.575 | -1.76 | -1.1 |
| DDX11 | 1 | -1.26 | -1.22 | -0.757 |
| LOC254938 (retired record) | 1 | 0.522 | 1.12 | 1.13 |
| SIRPD | 1 | 0.565 | 1.62 | 1.48 |
| TREX2 | 1 | -0.00382 | 0.406 | 0.69 |
| HIGD2A | 1 | 1.72 | 1.93 | 1.55 |
| KREMEN2 | 1 | -1.47 | -0.777 | -0.493 |
| TCEAL8 | 1 | 0.14 | 0.743 | 0.574 |
| COL12A1 | 1 | 0.262 | 0.301 | 0.298 |
| CBR1 | 1 | 1.85 | 0.786 | 1.42 |
| ACRBP | 1 | -1.5 | -1.15 | -0.384 |
| OR14J1 | 1 | 1.01 | 0.356 | 0.711 |
| COXFA4L2 | 1 | -1.04 | 0.491 | -0.684 |
| ADGRG4 | 1 | -0.59 | 0.921 | -0.0109 |
| METTL16 | 1 | 0.0823 | -0.274 | -0.016 |
| AHRR | 1 | -0.619 | -0.449 | -0.23 |
| GSC | 1 | 0.471 | 1.08 | 0.0308 |
| MIP | 1 | -0.165 | -0.833 | -0.0503 |
| VSIG10L | 1 | -0.291 | -0.0318 | 0.000168 |
| SSR3 | 1 | 0.486 | 1.44 | 0.851 |
| GBP6 | 1 | 0.747 | 0.365 | 1.75 |
| TRIML1 | 1 | 0.0689 | -0.126 | 0.255 |
| FAM234A | 1 | -0.338 | -0.962 | 0.109 |
| PJA2 | 1 | 0.348 | -1.27 | -1.79 |
| LHFPL3 | 1 | -1.06 | -0.706 | -0.779 |
| PPP1R9A | 1 | -1.03 | -0.659 | -1.09 |
| LINC00469 | 1 | 0.012 | -0.242 | -0.284 |
| PTGIS | 1 | 2.53 (active) | 3.95 | 2.73 |
| CPHL1P | 1 | -1.4 | -1.08 | -1.28 |
| NUP155 | 1 | 1.2 | 0.859 | 1.12 |
| ASCC2 | 1 | -0.741 | -0.723 | -0.493 |
| MARK1 | 1 | -0.0602 | -0.376 | -0.117 |
| MC1R | 1 | -0.644 | 0.662 | -2.66 |
| FOXC1 | 1 | 0.0578 | -0.537 | 0.75 |
| RANGAP1 | 1 | -0.171 | -0.828 | 0.546 |
| FLJ13224 | 1 | -1.94 (active) | -2.35 | -2.29 |
| PCMT1 | 1 | -1.58 | -0.957 | -1.29 |
| TMEM61 | 1 | -0.588 | -0.288 | -0.876 |
| DZIP1 | 1 | 0.611 | 0.685 | 0.812 |
| LOC441652 (retired record) | 1 | -1.33 | -1.29 | -1.32 |
| LOC107984784 | 1 | 1.3 (active) | 2.04 | 2.2 |
| KMT2A | 1 | -0.535 | 0.235 | -0.395 |
| KMT2A | 2 | -0.52 | -1.25 | -0.574 |
| FBXL4 | 1 | -0.54 | -0.13 | -0.685 |
| UBC | 1 | -1.7 (active) | -2.15 | -2.34 |
| ZNF473CR | 1 | 0.33 | 0.338 | 0.217 |
| SLC15A1 | 1 | -1.12 | -1.17 | -1.31 |

7 entries from above, set out differently.
Target gene,reagent,"robust z-score, replicate 1","robust z-score, replicate 2","robust z-score, replicate 3"
SLFN14,1,-0.686,-0.504,-0.482
SLC17A8,1,1.34,1.99,1.49
AKAP6,1,-0.587,0.148,-0.287
H4C1,1,-1.36,-0.743,-1.18
EPHA10,1,-0.414,0.155,-0.597
SMC1B,1,-1.74,-1.45,-1.06
DNASE2B,1,-1.65,-1.63,-1.92
